Laboratory results reported in PMC10925040.
Results are given in words; binding and its absence hold for the method and conditions named. Binding seen in cells or lysates may run through a third protein. Some results given as binding are weak or reduced against the parent protein; the word gives no strength. Sequences can lack the tags named with a protein.

Protein sequences, listed by entry. Tags and fused reporters are not part of them.
UniProt P35222: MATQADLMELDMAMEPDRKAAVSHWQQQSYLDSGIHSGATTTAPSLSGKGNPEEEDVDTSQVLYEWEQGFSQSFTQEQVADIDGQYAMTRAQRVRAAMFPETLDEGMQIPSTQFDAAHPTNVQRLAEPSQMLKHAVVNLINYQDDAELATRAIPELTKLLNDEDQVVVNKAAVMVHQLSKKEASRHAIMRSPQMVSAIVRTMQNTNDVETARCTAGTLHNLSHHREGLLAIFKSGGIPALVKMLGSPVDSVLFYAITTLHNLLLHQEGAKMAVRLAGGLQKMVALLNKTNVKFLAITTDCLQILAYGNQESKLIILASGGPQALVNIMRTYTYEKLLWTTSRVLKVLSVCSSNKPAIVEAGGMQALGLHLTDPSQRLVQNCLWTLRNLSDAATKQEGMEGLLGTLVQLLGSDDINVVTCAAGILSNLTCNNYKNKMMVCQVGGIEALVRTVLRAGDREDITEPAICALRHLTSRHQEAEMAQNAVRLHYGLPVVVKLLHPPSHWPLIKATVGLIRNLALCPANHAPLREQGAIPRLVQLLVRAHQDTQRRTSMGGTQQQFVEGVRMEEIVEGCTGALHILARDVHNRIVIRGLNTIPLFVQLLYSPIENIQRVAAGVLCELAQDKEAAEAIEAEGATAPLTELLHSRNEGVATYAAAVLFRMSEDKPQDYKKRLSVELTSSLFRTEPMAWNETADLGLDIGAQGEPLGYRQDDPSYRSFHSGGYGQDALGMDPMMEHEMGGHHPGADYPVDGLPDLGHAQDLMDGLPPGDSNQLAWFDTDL

T1: Solute carrier family 26 member 9 (SLC26A9), Flag-tagged (human) (UniProt Q7LBE3)
T1 sequence: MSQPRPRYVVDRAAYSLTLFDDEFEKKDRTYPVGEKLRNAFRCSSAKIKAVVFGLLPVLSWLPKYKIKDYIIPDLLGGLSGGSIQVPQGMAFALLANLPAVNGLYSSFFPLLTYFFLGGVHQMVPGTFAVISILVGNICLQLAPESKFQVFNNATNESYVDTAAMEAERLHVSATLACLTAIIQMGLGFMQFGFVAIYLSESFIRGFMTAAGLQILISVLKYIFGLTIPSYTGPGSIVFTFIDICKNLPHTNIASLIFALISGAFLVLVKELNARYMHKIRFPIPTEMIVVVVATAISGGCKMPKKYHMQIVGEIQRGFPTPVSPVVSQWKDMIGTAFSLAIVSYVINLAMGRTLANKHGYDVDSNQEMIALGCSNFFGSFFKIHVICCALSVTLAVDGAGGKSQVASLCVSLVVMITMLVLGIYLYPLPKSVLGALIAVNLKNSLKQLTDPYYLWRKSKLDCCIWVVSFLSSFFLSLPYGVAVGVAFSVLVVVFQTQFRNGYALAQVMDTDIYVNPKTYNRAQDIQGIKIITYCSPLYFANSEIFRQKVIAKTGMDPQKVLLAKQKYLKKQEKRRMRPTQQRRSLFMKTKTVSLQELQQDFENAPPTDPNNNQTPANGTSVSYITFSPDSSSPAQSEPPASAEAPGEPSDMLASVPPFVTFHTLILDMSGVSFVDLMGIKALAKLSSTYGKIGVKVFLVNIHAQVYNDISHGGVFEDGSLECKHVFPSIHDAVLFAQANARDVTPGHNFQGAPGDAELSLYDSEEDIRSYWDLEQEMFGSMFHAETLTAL


Tests used:
[1] = target: T1, Solute carrier family 26 member 9 (SLC26A9), Flag-tagged (human); experiment: co-IP; CRC cell lysates (1000 μg) with protease/phosphatase inhibitor mixture, overnight with Flag antibody, anti-β-catenin IgG or rabbit IgG; protein A/G 4 °C 4 h; washed three times; western blot
[2] = target: β-catenin (endogenous, CRC cells) (human (endogenous in CRC cells)) (UniProt P35222); experiment: as above

Molecule	binding [1]	binding [2]
β-catenin (endogenous, CRC cells) (from UniProt P35222 1-781)	binds	
Solute carrier family 26 member 9 (SLC26A9), Flag-tagged (protein, UniProt Q7LBE3 1-791) MSQPRPRYVVDRAAYSLTLFDDEFEKKDRTYPVGEKLRNAFRCSSAKIKAVVFGLLPVLSWLPKYKIKDYIIPDLLGGLSGGSIQVPQGMAFALLANLPAVNGLYSSFFPLLTYFFLGGVHQMVPGTFAVISILVGNICLQLAPESKFQVFNNATNESYVDTAAMEAERLHVSATLACLTAIIQMGLGFMQFGFVAIYLSESFIRGFMTAAGLQILISVLKYIFGLTIPSYTGPGSIVFTFIDICKNLPHTNIASLIFALISGAFLVLVKELNARYMHKIRFPIPTEMIVVVVATAISGGCKMPKKYHMQIVGEIQRGFPTPVSPVVSQWKDMIGTAFSLAIVSYVINLAMGRTLANKHGYDVDSNQEMIALGCSNFFGSFFKIHVICCALSVTLAVDGAGGKSQVASLCVSLVVMITMLVLGIYLYPLPKSVLGALIAVNLKNSLKQLTDPYYLWRKSKLDCCIWVVSFLSSFFLSLPYGVAVGVAFSVLVVVFQTQFRNGYALAQVMDTDIYVNPKTYNRAQDIQGIKIITYCSPLYFANSEIFRQKVIAKTGMDPQKVLLAKQKYLKKQEKRRMRPTQQRRSLFMKTKTVSLQELQQDFENAPPTDPNNNQTPANGTSVSYITFSPDSSSPAQSEPPASAEAPGEPSDMLASVPPFVTFHTLILDMSGVSFVDLMGIKALAKLSSTYGKIGVKVFLVNIHAQVYNDISHGGVFEDGSLECKHVFPSIHDAVLFAQANARDVTPGHNFQGAPGDAELSLYDSEEDIRSYWDLEQEMFGSMFHAETLTAL		binds
